Molecular target: 3H-Diazepam binding, rat brain cortical fragments
Assay: 3H-Diazepam Binding Assay
Conditions: Tris buffer, assayed in triplicate, read-out: IC50 (nM), concentration required to inhibit binding by 50%
Method: Brief-Description: Rat brain cortical fragments are prepared and the binding procedures performed as described by Mohler and Okada (Life Sciences, 20, 2101, 1977) except that Tris buffer is substituted for Krebs buffer. Drugs are assayed in triplicate.
Measurements Made: Radioactivity is measured by liquid scintillation counting.

Structure (SMILES): CN1C(=O)CN=C(c2ccccc2)c2cc(Cl)ccc21 [Diazepam]
- IC50: 5 nM
